{"source": "patent US20220031657A1", "about": "(NOVARTIS AG, priority 2017, published 2022)", "system": "MCF-7 parental (WT) cells", "assay": "cells", "details": "Homo sapiens, MCF7, 168 h, read-out: MCF-7 proliferation Ave IC50, ESR1 WT", "note": "pIC50: −log10 of the molar value.", "data": [{"smiles": "CC/C(=C(\\c1ccccc1)c1ccc(OCCN(C)C)cc1)c1ccccc1", "note": "[Tamoxifen]", "values": [{"measurement": "pIC50", "value": 8.35}]}]}
